Read-outs that look alike come from different tables or passages of the source.
Legend:
[1] = 50 ppm epinastine
[2] = εPLL uptake by ionic silicone hydrogel contact lenses (effect of ionic strength of packaging solution); conditions: for average εPLL taken up by lens: autoclaved 120° C. 30 min; for % of total εPLL available taken up: silicone hydrogel lens, autoclaved
[3] = In vitro release assay of εPLL from ocufilcon D lenses into ISO 10344 standard saline
[4] = silicone hydrogel lens of Example 1, TRIS buffer with 2% sorbitol (ionic strength about 0.02)
[5] = silicone hydrogel lens of Example 1, autoclaved in 3 ml TRIS buffered saline (ionic strength ~0.16)
[6] = 1.2 ml 500 ppm εPLL in PBS (ionic strength about 0.20)
[7] = 1.2 ml 500 ppm εPLL in TRIS/sorbitol buffer (ionic strength about 0.02)
[8] = 2 hr, ocufilcon D lens packaged in TRIS-NaCl
[9] = 2 hr, ocufilcon D lens packaged in TRIS-Sorbitol
[10] = 4 hr, ocufilcon D lens packaged in TRIS-NaCl
[11] = 4 hr, ocufilcon D lens packaged in TRIS-Sorbitol
[12] = 8 hr, ocufilcon D lens packaged in TRIS-NaCl
[13] = 8 hr, ocufilcon D lens packaged in TRIS-Sorbitol
[14] = 24 hr, ocufilcon D lens packaged in TRIS-NaCl
[15] = 24 hr, ocufilcon D lens packaged in TRIS-Sorbitol
[16] = 48 hr, ocufilcon D lens packaged in TRIS-NaCl
[17] = 48 hr, ocufilcon D lens packaged in TRIS-Sorbitol

Molecule: NC1=NCC2c3ccccc3Cc3ccccc3N12 (stereo not shown) [epinastine]
- % of available epinastine taken up [1, 4]: about 59%
- epinastine taken up by lens [1, 4]: about 88 μg
- % of available epinastine taken up [1, 5]: about 37%
- epinastine taken up by lens [1, 5]: about 56 μg

Molecule: epsilon poly-1-lysine [εPLL]
- average εPLL taken up by lens [2, 6]: 191 µg
- average εPLL taken up by lens [2, 7]: 408 µg
- % of total εPLL available taken up [2, 6]: about 32%
- % of total εPLL available taken up [2, 7]: about 68%
- cumulative % released relative to uptake [3, 8]: 28%
- cumulative μg release [3, 8]: 75 µg
- cumulative % released relative to uptake [3, 9]: 47%
- cumulative μg release [3, 9]: 284 µg
- cumulative % released relative to uptake [3, 10]: 40%
- cumulative μg release [3, 10]: 105 µg
- cumulative % released relative to uptake [3, 11]: 56%
- cumulative μg release [3, 11]: 341 µg
- cumulative % released relative to uptake [3, 12]: 50%
- cumulative μg release [3, 12]: 132 µg
- cumulative % released relative to uptake [3, 13]: 62%
- cumulative μg release [3, 13]: 380 µg
- cumulative % released relative to uptake [3, 14]: 62%
- cumulative μg release [3, 14]: 163 µg
- cumulative % released relative to uptake [3, 15]: 68%
- cumulative μg release [3, 15]: 416 µg
- cumulative % released relative to uptake [3, 16]: 68%
- cumulative μg release [3, 16]: 178 µg
- cumulative % released relative to uptake [3, 17]: 71%
- cumulative μg release [3, 17]: 431 µg

Source: patent publication US9248928B2, “Methods of manufacturing contact lenses for delivery of beneficial agents” (CooperVision International Holding Company, LP, priority 2012, dated 2016)
